Laboratory results from publication PMC8006934.
These are yes or no findings as the source states them, for the method shown. Some results given as binding are weak or reduced against the parent protein; the word gives no strength.

Sequences of proteins named here, by UniProt entry; tags and fusion partners are left off. Residues count along the entry.
UniProt P24071, residues 22-227: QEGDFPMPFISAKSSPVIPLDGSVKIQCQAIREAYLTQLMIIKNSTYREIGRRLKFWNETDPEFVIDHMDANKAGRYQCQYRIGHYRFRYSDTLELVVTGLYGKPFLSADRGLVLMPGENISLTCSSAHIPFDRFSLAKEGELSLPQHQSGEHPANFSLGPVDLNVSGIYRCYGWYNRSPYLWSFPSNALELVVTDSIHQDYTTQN
UniProt P12318, residues 34-217: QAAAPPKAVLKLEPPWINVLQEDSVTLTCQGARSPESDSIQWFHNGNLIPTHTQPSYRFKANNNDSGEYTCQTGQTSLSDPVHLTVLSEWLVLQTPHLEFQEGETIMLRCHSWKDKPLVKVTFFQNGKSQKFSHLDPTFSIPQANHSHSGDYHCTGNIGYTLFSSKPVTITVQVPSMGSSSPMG
UniProt P31994, residues 43-217: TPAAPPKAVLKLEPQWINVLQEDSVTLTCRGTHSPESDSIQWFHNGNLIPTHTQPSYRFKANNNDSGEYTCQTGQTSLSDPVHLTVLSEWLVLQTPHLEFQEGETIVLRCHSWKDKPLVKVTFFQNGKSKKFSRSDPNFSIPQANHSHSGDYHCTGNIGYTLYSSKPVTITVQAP
UniProt P02741, residues 19-224: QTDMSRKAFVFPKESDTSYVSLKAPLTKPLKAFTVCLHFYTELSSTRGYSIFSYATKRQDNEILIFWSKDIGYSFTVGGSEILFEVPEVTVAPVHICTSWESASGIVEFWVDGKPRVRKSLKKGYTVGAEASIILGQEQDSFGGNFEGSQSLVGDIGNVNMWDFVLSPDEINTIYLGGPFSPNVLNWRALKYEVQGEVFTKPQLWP

Assays:
Assay in all cases: SPR; IBIS MX96 array; C-terminally biotinylated FcRs spotted at different densities (100–1 nM) on one SensEye G-streptavidin sensor, blocked with biotinylated BSA; CRP injected in 2-fold dilutions from 0.98 to 2,000 nM in 20 mM Tris, 280 mM NaCl, 5 mM CaCl2, pH 8.0; KD by equilibrium fitting to Rmax = 500; both purified
[1] = target: IgA-Fc receptor I (FcαRI), human, extracellular domain, C-terminally biotinylated (human) (UniProt P24071)
[2] = target: FcγRIIa-H131, human, C-terminally biotinylated (human) (UniProt P12318)
[3] = target: FcγRIIb, human, C-terminally biotinylated (human) (UniProt P31994)

| binding [1] | binding [2] | binding [3] | Substance |
| --- | --- | --- | --- |
| binds weakly | binds |  | C-reactive protein (native CRP from human fluid) (from UniProt P02741 19-224) |
|  |  | binds | C-reactive protein (native CRP from human fluid) (from UniProt P02741 19-224) (other; other documents disagree on this pair) |
